Test results reported in PubChem BioAssay AID588497 (NMMLSC, 2011).
Out of some 360,000 compounds screened, about 780 (0.22%) were called active. Inconclusive means that the source gave no clear call. Such entries were picked first, then a sample of the others. No stated cut-off is given here; in the data, active means inhibition above about 35% (passing the limit was not always enough); inconclusive means no clear call, values can overlap the other calls.

What follows are compounds tested on Botulinum neurotoxin type F light chain protease (Clostridium botulinum) (assay: BoNT/F light chain protease inhibitors, primary screen, biochemical, flow cytometry, MLPCN library (AID 588497; further: plate controls were buffer without enzyme for full effect and enzyme alone for no effect)). Settings: Multiplex microsphere protease cleavage assay, at 10 µM, active compounds read high.

Row | SMILES | inhibition
1 | NC(N)=Nc1nc2ccccc2o1 | inconclusive: 1.3%
2 | CCCOC(=O)C1C2C=CC(C2)C1C(=O)OCC(=O)c1ccccc1 (stereo not drawn) | inconclusive: -6.5%
3 | CCCOc1ccc(CN(C)c2ncnc(N)n2)cc1 | inconclusive: 17.6%
4 | O=C(COc1ccccc1)NCc1n[nH]c(=S)n1-c1ccccc1 | active: 46.6%
5 | COc1cccc2c1OC1(C)CC2NC(=O)N1c1cccc(C(=O)N2CCN(c3ccccn3)CC2)c1 (stereo not drawn) | inconclusive: 38.7%
6 | CCN(CC)c1ccc(C(=S)N2CCN(c3ccccc3)CC2)cc1 | inactive: -11.2%
7 | CC1=Nn2c(nnc2-c2ccccc2F)SC1 | inconclusive: 12%
8 | C/C(=N\NC(N)=S)C1(C)CC2(CC(C)(C)OC2=O)C(=O)O1 (stereo not drawn) | inactive: 1.2%
9 | COc1ccc(/C=C/c2cc(C(F)(F)F)on2)cc1 | active: 39.5%
10 | O=C(N/N=C/c1cc(Br)c(Br)o1)c1ccc2c(c1)OCCO2 | inconclusive: -17%
11 | CCS(=O)(=O)c1ccc2oc(SCC(=O)NC3CCCC(C)C3C)nc2c1 (stereo not drawn) | inactive: -4.4%
12 | O=C(O)CN1CCN(Cc2ccc(F)cc2)C1=O | inconclusive: -5.4%
13 | C=CCn1c(SCC(C)=O)nnc1-c1ccc2ncccc2c1 | inconclusive: 65%
14 | O=C(O)CC(CC(=O)Nc1ccc(-n2ccc(C(F)(F)F)n2)cc1)c1ccccc1 (stereo not drawn) | inconclusive: 81.8%
15 | CC(=O)c1ccc(N(C)C)cc1 | inactive: -3.4%
16 | CCOc1c(Cl)cc(CNc2ccc(N3CCCC3)cc2)cc1OC | inactive: -38.7%
17 | N#C/C(=C\c1ccc(-c2nc3ccccc3s2)o1)C(N)=O | inconclusive: 42%
18 | O=C(Nc1ccc(NC(=S)NC(=O)C(c2ccccc2)c2ccccc2)cc1)c1ccccc1 | inconclusive: -1.3%
19 | Cc1ccc(-n2ncc3c(=O)[nH]cnc32)c(C)c1 | inconclusive: -15.4%
20 | C=CCOCCN(CC)CC | inconclusive: -4%
21 | CC1C(C#N)=C(N)OC2=C1C(=O)CC(C)(C)C2 (stereo not drawn) | inactive: -5%
22 | C=CCNc1oc(Cc2cccc3ccccc23)nc1C#N | inactive: -10.5%
23 | CC(C)c1cccc(C(C)C)c1NC(=O)CCN1C(=O)NC2(CCCC2)C1=O | inactive: 4.6%
24 | O=C(NCCCCc1ccccc1)c1ccc(Br)cc1 | inconclusive: 1%

Row | SMILES | inhibition
25 | Nc1cc(Cl)nc(N/N=C/c2c(O)ccc3ccccc23)n1 | inactive: -18.9%
26 | CN1CCN(CC(=O)Nc2c(C#N)cnn2-c2ccccc2)CC1 | inconclusive: -2.3%
27 | CC(=O)N1CCc2c(sc(NC(=O)C3CCCN3S(=O)(=O)c3cccs3)c2C#N)C1 (stereo not drawn) | inconclusive: 38.7%
28 | Cc1c(CC(=O)O)c(=O)oc2c(C)c(OCc3ccc(F)cc3Cl)ccc12 | active: 34.6%
29 | CN(C(=O)CN1C(=O)S/C(=C\c2ccc(Cl)cc2)C1=O)C1CCS(=O)(=O)C1 (stereo not drawn) | inactive: -1.8%
30 | O=C(NCCCO)/C(=C\c1ccco1)NC(=O)c1ccco1 | inconclusive: -9.9%
31 | O=c1[nH]c2cc3c(cc2cc1CN(Cc1ccc2c(c1)OCO2)Cc1nnnn1CC1CCCO1)OCO3 (stereo not drawn) | inactive: -6.2%
32 | O=C(N/N=C/c1cccs1)c1n[nH]c2c1CCCC2 | inconclusive: 7.9%
33 | O=C(COc1ccc(Cl)cc1)NCc1nnc(SCC(=O)NCc2ccc3c(c2)OCO3)o1 | inconclusive: 19.1%
34 | CCn1c(=O)c2c(nc3n2CCCN3c2cccc(C)c2)n(C)c1=O | inconclusive: 1.3%
35 | S=c1[nH]nc(-c2ccccn2)n1/N=C/c1ccc(-c2ccccc2Br)o1 | inactive: -8.9%
36 | O=[N+]([O-])c1ccc2[nH]c3nc4ccccc4nc3c2c1 | inconclusive: -23.8%
37 | CCCCn1c(N)c(N(CCC(C)C)C(=O)c2ccc(C)o2)c(=O)[nH]c1=O | inconclusive: 4.8%
38 | CCOc1ccc(S(=O)(=O)NCCC(=O)N2CCN(c3ccccc3O)CC2)cc1 | inactive: -3.4%
39 | Cc1cc(C(=O)O)sc1C | active: 35.6%
40 | Cc1ccc(S(=O)(=O)N(C)C)cc1NC(=O)c1sccc1Cl | inconclusive: 26.5%
41 | Cc1ccc(S(=O)(=O)NCCC2=CCCCC2)cc1 | inactive: -5.1%
42 | COc1ccc(C2C(C(N)=O)=C(C)Nc3nc(CCCO)nn32)cc1OC (stereo not drawn) | inconclusive: -23.3%
43 | CCc1nc2ccc(C(=O)N(C)Cc3ccco3)cn2c1N(CC)Cc1cccc(Br)c1 | inactive: 10%
44 | Cn1c(/C=C/c2cccc(Br)c2)nc2ccccc2c1=O | inactive: 11.4%
45 | CC(C(=O)OCc1nnc(-c2ccccc2)o1)N1C(=O)C2CCCCC2C1=O (stereo not drawn) | inactive: 1.5%
46 | COc1cc(C(=O)O/N=C2/C=CC(=O)C(C)=C2C)cc(OC)c1OC | inconclusive: 6.6%
47 | CCOc1ncccc1C(=O)NC(C)CCc1ccccc1 (stereo not drawn) | inconclusive: 17.9%
48 | OCCN1CCN(c2ncnc3c2ncn3[C@H]2CN(Cc3cccc(C(F)(F)F)c3)C[C@@H](CO)O2)CC1 | inactive: -3.1%

A second format for part of the listing above:
Row	SMILES	inhibition
40	Cc1ccc(S(=O)(=O)N(C)C)cc1NC(=O)c1sccc1Cl	inconclusive: 26.5%
41	Cc1ccc(S(=O)(=O)NCCC2=CCCCC2)cc1	inactive: -5.1%
42	COc1ccc(C2C(C(N)=O)=C(C)Nc3nc(CCCO)nn32)cc1OC (stereo not drawn)	inconclusive: -23.3%
43	CCc1nc2ccc(C(=O)N(C)Cc3ccco3)cn2c1N(CC)Cc1cccc(Br)c1	inactive: 10%

Next part

Row | SMILES | inhibition
49 | O=c1[nH]c(O)c(C=NC2CCCCC2)c(=O)[nH]1 | inconclusive: 23.1%
50 | CN(C)c1nc(SCCOC(=O)COc2ccc(Cl)cc2Cl)nc(N(C)C)n1 | inactive: 10.2%
51 | c1ccc(CNc2nc(-c3ccccc3)nc3ccccc23)cc1 | inactive: -14%
52 | Cc1[nH]c2ccc(OCc3ccccc3)cc2c1CCN | inconclusive: -35.1%
53 | COc1ccc(CNS(=O)(=O)NCc2ccccc2F)cc1 | inconclusive: -3.1%
54 | O=C(O)c1ccc(NC(=O)c2ccccc2NC(=O)c2ccccc2Br)cc1 | inconclusive: 20.3%
55 | COc1cc(/C=N/n2nnnc2N)ccc1OC(C)=O | inactive: 11.8%
56 | O=C(N/N=C\c1ccc(Cl)s1)C1COc2ccccc2O1 (stereo not drawn) | inconclusive: 46.8%
57 | COc1ccc(C(=O)Nc2sc(C)c(-c3ccccc3)c2C#N)cc1OC | inconclusive: 7%
58 | COc1cc(C=C2C(=O)c3ccccc3C2=O)cc(OC)c1 | inconclusive: -8.7%
59 | COc1ccc2nc(-c3ccccc3)nc(SC)c2c1 | inactive: -7.6%
60 | O=C(Nc1cnn(Cc2ccc(Cl)cc2Cl)c1)c1cc(-c2cccs2)on1 | inactive: -8.8%
61 | C/C(=N/OC(=O)c1ccc(Br)cc1)c1ccc(C)cc1 | inconclusive: 0.8%
62 | CC(=NNC(=S)Nc1ccccc1)c1ccccn1 | inactive: 11%
63 | COC(=O)c1ccc(C(=O)OC)c(NC(=O)COC(=O)CC2CC3CCC2C3)c1 (stereo not drawn) | inconclusive: 3.3%
64 | CCOc1ccc(-c2cc(C(=O)NCC3CCCO3)c3ccccc3n2)cc1 (stereo not drawn) | inactive: -16.8%
65 | COc1cccc(CN2CCCC(N3CCc4ccccc4C3)C2)c1O (stereo not drawn) | inconclusive: 1.2%
66 | Cc1ccc(C(=O)CN2C(=O)NC3(CCCCCC3)C2=O)c(C)c1 | inconclusive: -9.2%
67 | O=C1CC(N(Cc2ccc3c(c2)OCO3)C(=O)Nc2ccc(F)cc2)C(=O)N1c1ccccc1 (stereo not drawn) | inactive: 2%
68 | Cc1ccc(C)c(S(=O)(=O)C(C#N)c2nc3ccccc3nc2N2CCOCC2)c1 (stereo not drawn) | inconclusive: -22.3%
69 | CC(C)C(=O)Nc1ccc(C(=O)Nc2ccc(S(=O)(=O)N3CCOCC3)cc2)cc1 | inconclusive: 31.9%
70 | COc1ccc(C(=O)c2ccc(N(C)C)cc2)c(OC)c1 | inactive: -12.2%
71 | Cn1c(O)c(C=Nc2cccc(C(F)(F)F)c2)c(=O)n(C)c1=O | inconclusive: 17.2%
72 | CN(CC(=O)Nc1ccc(F)cc1)C(=O)COC(=O)CNC(=O)c1sc2ccccc2c1Cl | inconclusive: -1.7%

Row | SMILES | inhibition
73 | CC(=O)c1csc(COc2cc(Cl)cc(Cl)c2)n1 | inconclusive: -38.7%
74 | Cc1c(Cl)cccc1N(CC(=O)NC(C)c1ccccc1)S(C)(=O)=O (stereo not drawn) | inconclusive: 45.6%
75 | CS(=O)(=O)Nc1ccc(C(=O)NCC2CCCO2)cc1 (stereo not drawn) | inconclusive: -26.6%
76 | CCNC(=O)C(=O)NCCC1CCCCN1S(=O)(=O)c1cccs1 (stereo not drawn) | inconclusive: 14.2%
77 | CC1=NN(C(=O)Cc2ccc([N+](=O)[O-])cc2)C(O)(c2ccccc2)C1 (stereo not drawn) | inactive: 7.4%
78 | C[N+](C)(C)CCCN(Cc1ccc2c(c1)OCO2)C(=O)NC1CCCCC1 | inconclusive: 21.4%
79 | O=S(=O)(NC1CCCCC1N1CCC(O)CC1)c1ccc(Cl)cc1 (stereo not drawn) | active: 110%
80 | CCOC(=O)C(=CNc1ccc(S(N)(=O)=O)cc1)C(=O)OCC | inactive: -4.8%
81 | CC(=O)Nc1ccc(-c2ccnc3c2CC(C(=O)NCc2ccc(N4CCN(C)CC4)cc2)O3)cc1 (stereo not drawn) | inactive: -0.1%
82 | Cc1onc(-c2ccccc2)c1CNC(=O)Nc1ccc(F)cc1F | inconclusive: 24.3%
83 | Cc1[nH]c(C)c2c(=O)[nH]ncc12 | inconclusive: -119%
84 | CNc1ccccc1-c1nc2ccccc2n(C)c1=O | inconclusive: 12.5%
85 | COc1ccccc1NC(=O)CCC(=O)Nc1ccccc1OC | inactive: 3.9%
86 | CC1(C)SC[C@H](C(=O)Nc2cccc(Cl)c2)N1C=O | inconclusive: -0.3%
87 | Cc1cc(C(=O)N/N=C/c2c(C)nn(-c3ccccc3)c2Cl)n[nH]1 | inconclusive: -3.3%
88 | CC(=O)Nc1ccc(NC(=S)NC(=O)/C=C/c2ccco2)cc1 | inconclusive: -44.9%
89 | Cc1cc(NC(=O)Nc2ccc(Cl)c(Cl)c2)n(-c2ccccc2)n1 | inconclusive: 138%
90 | Cc1cc2c(cc1C)C(c1ccccc1F)CC(=O)N2 (stereo not drawn) | inconclusive: 15.9%
91 | CCOC(=O)C1(C)CCN1C(=O)c1ccc(C(=O)OC)cc1 (stereo not drawn) | inactive: 1.8%
92 | CC(=O)c1ccc(N2CCN(C(=O)c3ccc4[nH]c(C)c(C)c4c3)CC2)cc1 | inactive: -9.3%
93 | Cc1cc(-c2c(C(=O)N3CCOCC3)c(C)nn2-c2cccc(C(F)(F)F)c2)no1 | inconclusive: -35.6%

A few values from the list:
For inhibition, CCn1c(=O)c2c(nc3n2CCCN3c2cccc(C)c2)n(C)c1=O reads inconclusive: 1.3%
For inhibition, Cc1[nH]c(C)c2c(=O)[nH]ncc12 reads inconclusive: -119%
